Data from the supplement of paper PMC9135407.
Several values for one entry are separate records, joined by “and”; a condition that tells them apart may be missing. Equal values may be shown once. Where a name gives a salt, the structure may show the parent alone. ± gives the standard deviation of the averaged measurements. The list shows a part of the results. Part of the spread comes from offsets between plates or batches.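 Culture-activated primary human stellate myofibroblasts, where regained lipid droplets signal inactivation. Value: share of Hoechst-counted cells above a per-plate Bodipy cutoff, in duplicate wells, with DMSO negative and nortriptyline positive controls on each plate. Hits: a control-normalized score above the plate's top-tenth-percentile nortriptyline wells, or one of a plate's three best wells. Final well concentrations are not given.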

Tested on: primary human hepatic stellate cells (donor 1)
Experiment: percent Bodipy-positive cells; higher = more lipid droplet accumulation
Details: 48 h
Experimental: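 Primary lipid accumulation screen in primary human hepatic stellate cell myofibroblasts (donor 1, passage 8) in 384-well plates. 100 nL of library compound was pin-transferred into 30 µL medium in duplicate, and cells were treated for 48 h. The 'Scaled' score combines distance from plate baseline, toxicity and reproducibility penalties, and is normalised to nortriptyline (positive) and DMSO (negative) controls on each plate. A hit is defined as scaled >0.85 or among the top 3 wells per plate.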

[1] = library stock concentration: 10 mM
[2] = library stock concentration: 3.33 mM
[3] = library stock concentration: 80 uM
[4] = library stock concentration: 400 uM
[5] = library stock concentration: 2 mM

Compound: N[C@@H](Cc1c[nH]c2ccc(O)cc12)C(=O)O [5-Hydroxy-L-tryptophan]
- percent Bodipy-positive cells [1]: 44 ± 14%

Compound: N[C@@H](Cc1c[nH]c2ccc(O)cc12)C(=O)O [5-hydroxytryptophan (5-HTP)]
- percent Bodipy-positive cells [2]: 6.85 ± 1%
- percent Bodipy-positive cells [1]: 14.2 ± 0.41%

Compound: CC(=O)Nc1nc2c(Oc3cc(-c4ccc(C(F)(F)F)cc4)ncn3)cccc2s1
- percent Bodipy-positive cells [2]: 26.1 ± 1.6%
- percent Bodipy-positive cells [1]: 21.3 ± 1.3%

Compound: O=C(O)Cc1nn(Cc2ccc(Br)cc2F)c(=O)c2ccccc12 [Statil]
- percent Bodipy-positive cells [1]: 8.83 ± 1.9%

Compound: CC(C)n1nc(-c2ccc3oc(N)nc3c2)c2c(N)ncnc21
- percent Bodipy-positive cells [3]: 5.6 ± 1.3%
- percent Bodipy-positive cells [4]: 4.6 ± 3.2%
- percent Bodipy-positive cells [5]: 7.86 ± 4.8%
- percent Bodipy-positive cells [2]: 4.04 ± 1.9%
- percent Bodipy-positive cells [1]: 12.6% and 8.67%

Compound: COc1cc(C)c(Sc2cnc(NC(=O)c3ccc(CNC(C)C(C)(C)C)cc3)s2)cc1C(=O)N1CCN(C(C)=O)CC1 (stereo not given)
- percent Bodipy-positive cells [3]: 18 ± 5.5%
- percent Bodipy-positive cells [4]: 20.9 ± 8.8%
- percent Bodipy-positive cells [5]: 28.2 ± 7.9%
- percent Bodipy-positive cells [1]: 74.9 ± 3.4%

Compound: Cc1cc(C(C)(C)C)c(O)c(C(C)(C)C)c1 [2,6-di-t-butyl-4-methylphenol]
- percent Bodipy-positive cells (library stock concentration: 9.1 mM): 17.9 ± 1.8%

Compound: COc1ccc(-c2cc(=S)ss2)cc1 [Anethole-trithione (anetholtrithion)]
- percent Bodipy-positive cells (library stock concentration: 8.3 mM): 8.46 ± 0.51%

Compound: COc1ccc(NS(=O)(=O)c2sc3ccc(Cl)cc3c2C)cc1N1CCNCC1
- percent Bodipy-positive cells [2]: 39.1 ± 2.3%

Compound: C#CCN[C@@H]1CCc2ccccc21
- percent Bodipy-positive cells [1]: 28 ± 6.3%

Compound: C#CCN[C@@H]1CCc2ccccc21 [Rasagiline Mesylate]
- percent Bodipy-positive cells [2]: 14.1 ± 2.6%
- percent Bodipy-positive cells [1]: 18.8 ± 6.6%

Compound: Cn1c(=O)[nH]c2ncn(C)c2c1=O [1,7-Dimethylxanthine]
- percent Bodipy-positive cells [1]: 34 ± 2.7%

Compound: N#C/C(=C\c1ccc(O)c(O)c1)C(=O)OCCc1cccs1
- percent Bodipy-positive cells [1]: 5.98 ± 3.8%

Compound: COc1cc(OC2CCN(C)CC2)ccc1Nc1ncc2c(n1)n(C1CCCC1)c(=O)n2C
- percent Bodipy-positive cells [2]: 47.8 ± 7.9%

Compound: C1COC(NC(C2CC2)C2CC2)=N1 [Rilmenidine hemifumarate]
- percent Bodipy-positive cells [1]: 15.5% and 5.6%

Compound: O=c1c(-c2ccccc2)c1-c1ccccc1 [diphenylcyclopropenone]
- percent Bodipy-positive cells [1]: 99.28 ± 0.43%

Compound: CCOc1nc2cccc(C(=O)OCc3oc(=O)oc3C)c2n1Cc1ccc(-c2ccccc2-c2noc(=O)[nH]2)cc1 [Azilsartan Medoxomil]
- percent Bodipy-positive cells [2]: 12.8 ± 8.6%
- percent Bodipy-positive cells [1]: 7.18 ± 1.6%

Compound: CN1CCN(C2CCN(C(=O)Nc3cc(Oc4ccc(NC(=O)C5(C(=O)Nc6ccc(F)cc6)CC5)c(F)c4)ccn3)CC2)CC1 [Golvatinib (E7050)]
- percent Bodipy-positive cells [2]: 83.979 ± 0.052%

Compound: OC[C@H]1O[C@@H](n2cnc3c(NC4CCCC4)ncnc32)[C@H](O)[C@@H]1O [N6-Cyclopentyladenosine]
- percent Bodipy-positive cells [1]: 30.7% and 7.76%

Compound: CN1c2cc(O)c(N=NC(N)=O)cc2CC1S(=O)(=O)O (stereo not given) [Carbazochrome sodium sulfonate (AC-17)]
- percent Bodipy-positive cells [2]: 7.4 ± 3.3%
- percent Bodipy-positive cells [1]: 8.27 ± 4.5%

Compound: COc1cc2ncn(-c3cc(OCc4ccccc4C(F)(F)F)c(C(N)=O)s3)c2cc1OC
- percent Bodipy-positive cells [3]: 10.6 ± 8.9%
- percent Bodipy-positive cells [4]: 13.4 ± 2.6%
- percent Bodipy-positive cells [5]: 13 ± 4.5%
- percent Bodipy-positive cells [1]: 74.2 ± 8.8%

Compound: C[N+](C)(C)CC=O [Betaine aldehyde chloride]
- percent Bodipy-positive cells [1]: 48.1 ± 2.4%

Compound: Cn1cc(C2=C(c3ccc(Cl)cc3Cl)C(=O)NC2=O)c2ccccc21
- percent Bodipy-positive cells [5]: 82.3 ± 5%
- percent Bodipy-positive cells [1]: 91.5 ± 1%

Compound: CC1(C)CCC(C)(C)c2cc(C3(c4ccc(C(=O)O)cc4)OCCO3)ccc21
- percent Bodipy-positive cells [1]: 9.28 ± 2.6%

Compound: O=C(O)c1cn(C2CC2)c2cc(N3CCNCC3)c(F)cc2c1=O [Ciprofloxacin]
- percent Bodipy-positive cells (library stock concentration: 6 mM): 7.36% and 8.83%
- percent Bodipy-positive cells [1]: 47.2 ± 5.6%

Compound: O=C(O)c1cn(C2CC2)c2cc(N3CCNCC3)c(F)cc2c1=O [Ciprofloxacin hydrochloride]
- percent Bodipy-positive cells: 17.06 ± 0.099%

Compound: CCCn1c(=O)[nH]c(=O)c2[nH]cnc21 [3-n-Propylxanthine]
- percent Bodipy-positive cells [1]: 24.2 ± 8.7%

Compound: COc1cccc(-c2cc(F)ccc2[C@H]2Cc3nc(N)nc(C)c3C(=O)N2)n1
- percent Bodipy-positive cells [1]: 92.57 ± 0.47%

Compound: CC(C)NCC(O)COc1ccc(CCOCC2CC2)cc1 (stereo not given) [Betaxolol]
- percent Bodipy-positive cells [2]: 21.1 ± 6.1%
- percent Bodipy-positive cells [1]: 32.4 ± 1.9%

Compound: CC(C)NCC(O)COc1ccc(CCOCC2CC2)cc1 (stereo not given) [Betaxolol hydrochloride]
- percent Bodipy-positive cells: 63.2 ± 3.9%

Compound: CC(C)NCC(O)COc1ccc(CCOCC2CC2)cc1 (stereo not given)
- percent Bodipy-positive cells [1]: 41.8 ± 1.8%

Compound: CC(=O)[C@@]1(O)CC[C@H]2[C@@H]3C[C@H](C)C4=CC(=O)C=C[C@]4(C)[C@@]3(F)[C@@H](O)C[C@@]21C [Fluorometholone]
- percent Bodipy-positive cells: 9.08 ± 1%
- percent Bodipy-positive cells (library stock concentration: 5.3 mM): 1.56 ± 0.31%
- percent Bodipy-positive cells [1]: 7.21% and 26.6%

Compound: Cc1c(C(=O)NN2CCCCC2)nn(-c2ccc(Cl)cc2Cl)c1-c1ccc(I)cc1
- percent Bodipy-positive cells (library stock concentration: 1 mM): 9.51% and 17%
- percent Bodipy-positive cells [2]: 9.14 ± 1.1%
- percent Bodipy-positive cells [1]: 11.3% and 30% and 10.2%

Compound: CCc1nc(N)nc(N)c1-c1ccc(Cl)cc1
- percent Bodipy-positive cells [1]: 40.2 ± 10%

Compound: CCc1nc(N)nc(N)c1-c1ccc(Cl)cc1 [Pyrimethamine]
- percent Bodipy-positive cells: 43.5 ± 12%
- percent Bodipy-positive cells [2]: 15.48 ± 0.13%
- percent Bodipy-positive cells (library stock concentration: 8 mM): 28.9 ± 0.45%
- percent Bodipy-positive cells [1]: 28.8% and 17%
